Laboratory results: PubChem BioAssay AID504791 (Drosophila RNAi Screening Center, 2011)

Screen: 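Genes of the fly required for silencing by miRNA, siRNA or endo-siRNA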 (primary screen)
Cells: Drosophila S2-derived reporter cells
Knock-down reagent: long dsRNA against Drosophila genes, about 150-250 ng dsRNA per well (siRNA assay); about 80-120 ng (miRNA assay)
Duration: about 5 days (siRNA assay); about 4 days (miRNA assay)
Treatment: copper sulfate induction of reporters: 25 µM (siRNA assay); 200 mM stated (miRNA assay), 1-2 days before reading
Read-out: 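Per-well ratio of Renilla over firefly light, expressed relative to that plate's average ratio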
Direction: siRNA reporter hit score: higher = 3 marks a strong hit with raised ratio; -3 a strong hit with lowered ratio
Call rule: 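First-pass picks had plate-scaled ratios over 1.5 for the siRNA assay, over 1.6 for the miRNA assay, or under 0.6; two distinct dsRNAs had to score alike on retest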
The deposit covers about 23,000 reagents; shown is an unselected part of those with a known target gene and a result. Over the whole deposit, 199 (0.86%) were called active. 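Plate-scaled ratios behind the calls are not deposited; printed light signals are raw; many rows marked increased or decreased are still called inactive.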 A number with no mark means an inactive call. A plus sign joins genes that one reagent is predicted to hit.

Target gene,DRSC id,siRNA reporter hit score,stable siRNA reporter change,miRNA reporter change,"stable assay Renilla, run 1 (luminescence)","stable assay firefly, run 1 (luminescence)"
Hayan (GeneID 32831),DRSC19989,,,,2755,2.84e5
Hayan (GeneID 32831),DRSC22231,,,,9215,5.86e5
CG14803 (GeneID 31142),DRSC18556,,,,5860,4.14e5
Vha36-1 (GeneID 44702),DRSC07098,,,,9421,4.18e5
Appl (GeneID 31002),DRSC17728,,,,8027,3.69e5
Appl (GeneID 31002),DRSC27476,,,reporter ratio lowered past the hit cutoff,,
robl62A (GeneID 38170),DRSC08153,,,,7156,4.20e5
CG32845 (GeneID 318243),DRSC07867,,,,6210,5.08e5
CG7675 (GeneID 42211),DRSC16280,,,,8766,3.35e5
CG5664 (GeneID 40371),DRSC11782,,,,5351,4.17e5
Cpr30B (GeneID 34270),DRSC02728,,,,9741,4.26e5
Wnt2 (GeneID 35975),DRSC05160,,,,6092,5.11e5
Wnt2 (GeneID 35975),DRSC07574,,,,6051,3.28e5
srw (GeneID 38525),DRSC08201,,,,7318,5.55e5
ninaB (GeneID 41678),DRSC16807,,,,7602,3.10e5
CG15029 (retired record) (GeneID 32449),DRSC19610,,,,5562,4.43e5
ALiX (GeneID 43330),DRSC14564,,,,7910,3.35e5
ras (GeneID 43873),DRSC18825,,,,7244,4.07e5
NijA (GeneID 39215),DRSC10637,,,reporter ratio raised past the hit cutoff,7256,5.88e5
CG13748 (GeneID 35896),DRSC06419,,,,5842,3.21e5
CG5103 (GeneID 40012),DRSC10481,,,,6831,3.60e5
MED21 (GeneID 3354977),DRSC20932,,,,5250,3.58e5
CG42493 (GeneID 8674013),DRSC05309,,,,5311,4.81e5
Trm1 (GeneID 34656),DRSC02951,,,,26901,6.18e5
CG11816 (GeneID 32310),DRSC19428,,,,4439,2.72e5
CG12003 (GeneID 38183),DRSC08214,,,,6220,4.36e5
CG3734 (GeneID 42318),DRSC15509,,,,7064,2.97e5
CG12640 (GeneID 31973),DRSC17847,,,,4856,4.07e5
Pglym78 (GeneID 43447),DRSC16787,,,,7347,4.64e5
CG14566 (GeneID 40421),DRSC11727,,,,6704,3.45e5
CG14022 (GeneID 33763),DRSC02352,,,,7031,3.92e5
Wdr92 (GeneID 39997),DRSC10187,,,,7306,3.17e5
MetRS (GeneID 37177),DRSC22533,,reporter ratio raised past the hit cutoff,,8696,2.74e5
Gr89a (GeneID 42007),DRSC15023,,,,8454,5.93e5
Ccp84Ae (GeneID 40821),DRSC12590,,,,4987,4.76e5
Obp50a (GeneID 246432),DRSC22152,,,,8431,5.68e5
CG7789 (GeneID 43516),DRSC16312,,,,8327,4.35e5
PsGEF (GeneID 31224),DRSC18596,,,reporter ratio lowered past the hit cutoff,5516,3.69e5
Corin (GeneID 35691),DRSC06818,,,,5668,4.99e5
CG13325 (GeneID 36437),DRSC06362,,,,8270,4.08e5
CG17068 (GeneID 33024),DRSC20545,,,,7278,3.80e5
PIG-G (GeneID 35685),DRSC06823,,,,13105,2.01e6
CG15919 (GeneID 50216),DRSC06594,,,,3328,3.36e5
Tango2 (GeneID 32319),DRSC19394,,,,7945,4.96e5
Tango2 (GeneID 32319),DRSC21526,,,,9460,4.14e5
EMC7 (GeneID 36767),DRSC07162,,,,5682,3.20e5
lin (GeneID 45325),DRSC07644,,,,6879,5.47e5
CG30486 (GeneID 246645),DRSC06680,,,,5279,3.06e5
CG11911 (GeneID 33206),DRSC00331,,,,12848,3.89e5
CG17059 (GeneID 50227),DRSC06654,,,,6574,3.36e5
CG5255 (GeneID 42073),DRSC15754,,,,6163,3.03e5
ken (GeneID 37785),DRSC04696,,,reporter ratio lowered past the hit cutoff,12051,6.79e5
ken (GeneID 37785),DRSC23196,,,,4487,3.94e5
Capr (GeneID 59172),DRSC10346,,,,7356,3.62e5
CG4278 (GeneID 34970),DRSC02741,,,,55489,1.45e6
ATP6AP2 (GeneID 41104),DRSC16420,,,,5960,4.38e5
CG7368 (GeneID 39301),DRSC10826,,,,3907,4.85e5
CG7368 (GeneID 39301),DRSC22821,,,,3587,3.85e5
CG14095 (GeneID 40112),DRSC10098,,,,6939,3.80e5
Polr2L (GeneID 42942),DRSC14630,,,,4638,2.17e5
CG42505 + CG42504 + CG31358,DRSC15235,,,,9252,4.59e5
CG42505 + CG42504 + CG31358,DRSC15308,,,,5943,6.21e5
CG42505 + CG42504 + CG31358,DRSC15309,,,,7039,4.12e5
CG3308 (GeneID 42527),DRSC15474,,,,9008,3.40e5
Polr3A (GeneID 32524),DRSC19766,,,,4732,4.07e5
Set1 (GeneID 3354971),DRSC20930,-3,,,7250,4.72e5
Set1 (GeneID 3354971),DRSC20931,,,,7460,3.97e5
Hacd2 (GeneID 34762),DRSC03181,,,,6826,5.74e5
Ip259 (GeneID 34419),DRSC03352,,,,10622,1.08e6
CG13334 (GeneID 36510),DRSC06369,,,,5595,3.07e5
ppk24 (GeneID 43702),DRSC15093,,,,6983,4.63e5
CG4744 (GeneID 36485),DRSC06887,,,,8490,5.99e5
CG14312 (GeneID 42195),DRSC14791,,,,6766,2.69e5
CG13589 (GeneID 37906),DRSC04225,,,,6494,4.23e5
Pkc53E (GeneID 48311),DRSC05636,,,,6807,4.06e5
Pkc53E (GeneID 48311),DRSC07510,,,,8803,2.82e5
CG5002 (GeneID 37025),DRSC06911,,,,11935,6.44e5
Idgf3 (GeneID 34981),DRSC03351,,,,74744,1.33e6
Tsf3 (GeneID 36800),DRSC06849,,,,7946,2.84e5
mAChR-A (GeneID 37892),DRSC04702,,,,5702,3.82e5
CG8562 (GeneID 38828),DRSC10995,,,,6387,3.90e5
ND-B14.7 (GeneID 37385),DRSC04544,,,,6826,5.35e5
CG4575 (retired record) (GeneID 31637),DRSC18372,,,,5059,3.83e5
Tre1 (GeneID 140439),DRSC18726,,,,4620,2.45e5
CG33642 (GeneID 3771733),DRSC01325,,,,4763,3.35e5
CG1440 (GeneID 31776),DRSC17915,,,,7715,5.20e5
CG14483 (GeneID 36995),DRSC06455,,,,5431,3.39e5
Polr3G (GeneID 39941),DRSC21511,,,,7815,5.19e5
mag (GeneID 40267),DRSC11787,,,,10022,3.35e5
CG2100 (GeneID 40707),DRSC12303,,,,10166,5.71e5
tobi (GeneID 43072),DRSC14435,,,,7887,4.01e5
Mccc1 (GeneID 43750),DRSC15417,,,,8154,5.28e5
CG13121 (retired record) (GeneID 34298),DRSC02217,,,,7621,4.40e5
CG3927 (GeneID 37576),DRSC04433,,,,5408,3.34e5
CG3927 (GeneID 37576),DRSC22813,,,,4911,4.53e5
Cndp2 (GeneID 35507),DRSC04873,,,,6910,3.60e5
mod(mdg4) + pre-mod(mdg4)-U,DRSC13476,,,,4339,3.89e5
orb (GeneID 42752),DRSC17021,3,reporter ratio raised past the hit cutoff,reporter ratio lowered past the hit cutoff,9077,2.36e5
orb (GeneID 42752),DRSC23148,,,,3616,3.42e5
Ccp84Ab (GeneID 40824),DRSC12587,,,,7191,3.45e5
ND-30 (GeneID 38378),DRSC08243,,,,8118,5.16e5
Btnd (GeneID 31552),DRSC18316,,,,5407,2.86e5
CG15368 (GeneID 31861),DRSC18040,,,,4983,4.55e5
CG15368 (GeneID 31861),DRSC23291,,,,4103,3.38e5
CG3223 (GeneID 40947),DRSC15468,,,,7283,3.92e5
dtn (GeneID 31555),DRSC17939,,,,6450,2.80e5
